The values below come from publication PMC5962642, “Dynamic imaging of adaptive stress response pathway activation for prediction of drug induced liver injury” (Archives of Toxicology, 2018).

For data set [1] the following is noted: C-max obtained from FDA or literature; ref per compound (FDA, Dailymed, Xu, O’Brien, Khetani, Regenthal, Gustafsson, Dawson, Ogutu, Patel, Schmidt, Ravic, Keisu, Hu, Wagner); cited from earlier work.
For data set [2] the following is noted: ref livertox.nih.gov database; cited from earlier work.
For data set [3] the following is noted: two classes made from the FDA DILI-concern labeling.

As for `COC(=O)C1=C(C)NC(C)=C(C(=O)OC)C1c1ccccc1[N+](=O)[O-]` [Nifedipine], in data set [1], the Cmax is 430 nM. Also, in data set [2], the “Metab (metabolic potential)” value is “YES”. In data set [3], the Severity class result was “Non-sev”.
